Test results published in the supplement of paper PMC10338343.
± gives the standard deviation. The list shows a part of the results. Many entries were measured with a wide error.

test system: EfPiwi piRISC loaded with L1MC piRNA (26 nt); test: pre-steady-state target cleavage rate (min^-1); guide: L1MC piRNA 5'p-UAACUAAAUACUAUGCAAGCUGUAGG; MIWI and MILI are mouse PIWI proteins and EfPiwi is from a freshwater sponge; tags in brackets are library labels; higher = faster piRNA-guided slicing of the target; settings: auxiliary factor: 500 nM Ephydatia muelleri Gtsf1
Method in brief: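 For Cleave-'n-Seq, a transcribed, DNA-blocked target RNA library […] met 1 nM active affinity-purified piRISC with one synthetic guide at 33 °C for 0–8 or 0–960 min in HEPES–potassium acetate buffer, with or without 500 nM GTSF1 partner protein. Uncleaved targets were sequenced and normalised to depth and weakly complementary targets, with three trials pooled and k3 capped at 0.0001 min^-1. A burst-and-steady-state fit supplied the pre-steady-state cleavage rate.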

Question: Which “pre-steady-state target cleavage rate” value does the source give for UCCUGGAUGUCGAUGCUUAGUAAUUAGUUA here?
Answer: Its value is 0.000743 ± 0.0067.

Question: Which “pre-steady-state target cleavage rate” value does the source give for UCCUGGAUGUCGAACGUAUGUAUUUAGAUUA here?
Answer: Its value is under 0.0001.

Question: How did the “pre-steady-state target cleavage rate” value turn out when UCCUCCUACAGCUUGCAAAGUAUAUAGUUA was run?
Answer: Its value is 0.008 ± 0.0043.

Question: How did the “pre-steady-state target cleavage rate” value turn out when UCCUGGAAGCAGCUUGCAUAGUAUUUAGUUA was run?
Answer: Its value is 0.0569 ± 0.013.

Question: UCCUGGAUGAGCUUCAUAGUAUUUAGUUA was tested. Which “pre-steady-state target cleavage rate” value did it give?
Answer: The value was 0.00394 ± 0.0033.

Question: With UCCUGGAUGUCGAUGAUAGUAUUUAGUUA as the sequence, how does the “pre-steady-state target cleavage rate” value read?
Answer: Its value is 0.000655 ± 0.0076.

Question: For UCCUCCAACAGGUUGCAUAGUAUUUAGUUA, which “pre-steady-state target cleavage rate” value is on record?
Answer: Its value is 0.0491 ± 0.011.

Question: UCCUGGAUGAGCUUGCCUAGUAUUUAGUUA was tested. Which “pre-steady-state target cleavage rate” value did it give?
Answer: The value was 0.00623 ± 0.0037.

Question: With UCCUGGUACAGCUUGCAUAGUAUUAAGUUA as the sequence, how does the “pre-steady-state target cleavage rate” value read?
Answer: The value was 0.00521 ± 0.0021.

Question: How did the “pre-steady-state target cleavage rate” value turn out when UCCUCCUAGAGCAUGCAUAGUAUUUAGUUA was run?
Answer: The value was 0.0163 ± 0.0058.

Question: UCCUCCUACAGCUUGCAUAGUAUAAUGUUA was tested. Which “pre-steady-state target cleavage rate” value did it give?
Answer: The value was 0.00388 ± 0.0022.

Question: With UCCUGGAUGUCGAUGCAAUCUAUUUAGUUA as the sequence, how does the “pre-steady-state target cleavage rate” value read?
Answer: The value was 0.000263 ± 0.0088.

Question: For UCCUCCUACUCCUUGCAUAGUAUUUAGUUA, which “pre-steady-state target cleavage rate” value is on record?
Answer: Its value is 0.165 ± 0.046.

Question: For UCCUGGAACAGCUUGCAUUGUAUUUAGUUA, which “pre-steady-state target cleavage rate” value is on record?
Answer: The value was 0.00926 ± 0.0026.

Question: Which “pre-steady-state target cleavage rate” value does the source give for UCCUGGAUGUCGAACGAUAGUAUUUAGAUUA here?
Answer: The value was 0.00027 ± 0.018.

Question: How did the “pre-steady-state target cleavage rate” value turn out when UCCUGGAUGUCCUGUGCAUAGUAUUUAGUUA was run?
Answer: Its value is 0.00223 ± 0.0032.

Question: Which “pre-steady-state target cleavage rate” value does the source give for UCCUGCUAGUGCUUGCAUAGUAUUUAGUUA here?
Answer: The value was 0.00363 ± 0.0014.

Question: For UCCUGGAUCAGCUUGCAUAGUAUUCAGUUA, which “pre-steady-state target cleavage rate” value is on record?
Answer: Its value is 0.00509 ± 0.0019.

Question: For “UCCUGGAUGUCCUUGCAUAGUAUUUAGUUC [g2:g19:cont:t1C]”, which “pre-steady-state target cleavage rate” value is on record?
Answer: The value was 0.00867 ± 0.0028.

Question: Which “pre-steady-state target cleavage rate” value does the source give for UCCUCCUAGAGCUUGCAUAGUAUUUACUUA here?
Answer: Its value is 0.00356 ± 0.0033.

Question: Which “pre-steady-state target cleavage rate” value does the source give for UCCUCCUACAGCAUGCAUAGUAUUUAGUAA here?
Answer: The value was 0.00521 ± 0.0023.

Question: How did the “pre-steady-state target cleavage rate” value turn out when UCCUGGAUGAGCUCGCAUAGUAUUUAGUUA was run?
Answer: Its value is 0.0143 ± 0.0042.

Question: With UCCUGCUACAGCUUGCAUAGUAUUAUAGUUA as the sequence, how does the “pre-steady-state target cleavage rate” value read?
Answer: The value was 0.0103 ± 0.0037.

Question: How did the “pre-steady-state target cleavage rate” value turn out when “UCCUGGUACAGCUUGCAUAGUAUUUAGUUG [g2:g24:cont:t1G]” was run?
Answer: Its value is 0.0182 ± 0.0065.
